# Assay results taken from PMC7862700.
# The list shows a part of the results, in another mix than the full data. For part of these data: At the low end of the ranking, values are background and their order means little. The list shows a part of the results. For part of these data: The exact form of the protein is not confirmed.
# Molecular target: T1, GABPA (UniProt Q06546)
# T1 sequence: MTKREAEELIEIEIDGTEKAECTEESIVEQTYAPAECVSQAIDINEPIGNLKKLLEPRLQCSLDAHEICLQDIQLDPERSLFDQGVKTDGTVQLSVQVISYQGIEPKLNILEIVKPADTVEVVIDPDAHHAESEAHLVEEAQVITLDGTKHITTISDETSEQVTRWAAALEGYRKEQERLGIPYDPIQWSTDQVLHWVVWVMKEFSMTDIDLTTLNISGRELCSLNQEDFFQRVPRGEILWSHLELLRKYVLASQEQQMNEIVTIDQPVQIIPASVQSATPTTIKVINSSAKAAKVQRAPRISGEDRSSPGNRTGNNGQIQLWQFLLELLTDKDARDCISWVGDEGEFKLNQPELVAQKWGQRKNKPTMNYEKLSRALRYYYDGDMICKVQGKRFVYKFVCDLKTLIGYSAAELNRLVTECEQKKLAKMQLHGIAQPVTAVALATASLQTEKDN
# Test: DAPPL (digital affinity profiling via proximity ligation, sequencing)
# Conditions: 10 mM Tris-HCl pH 7.5, 50 mM NaCl, 1 mM DTT, 4% glycerol, room temperature, 30 min; GST-TFs on glutathione beads, 16-mer random dsDNA library, 0.1% …; high values mean tight binding; double strand, one strand shown; scale: fold enrichment (6-mer frequency, TF over GST control)
row,Sequence,binding signal
1,CCAGGC,0.426
2,GGAGCG,0.404
3,ACGAGG,0.766
4,ATTGGA,0.909
5,TAGGTG,0.883
6,CACCGT,0.622
7,GCGTCG,0.767
8,GGTTGA,0.821
9,ACAGTG,0.502
10,GGCCGC,0.854
11,GGGCGG,0.423
12,GTCGCG,0.695
13,AGGGCA,0.839
14,ACACGT,0.78
15,CAGGTA,0.849
16,CGTGTG,0.438
17,CATGTG,0.879
18,AACCGT,0.522
19,GAGTTA,0.572
20,GGGGTG,0.764

row,Sequence,binding signal
1,GAGCTA,0.962
2,GGACAG,0.585
3,GAGTGC,0.712
4,GCGGAG,0.236
5,CCTGAG,0.865
6,GTGGGC,0.675
7,CACAGA,0.845
8,CAGTCA,0.481
9,GTCATC,0.894
10,GGCCAT,0.884
11,GACACA,0.839
12,TACGTG,0.716
13,GTCATA,0.694
14,TGTGGG,0.836
15,ACAGGT,0.75
16,AGACCA,0.62
17,GAGGTC,0.612
18,AGTCAT,0.597
19,GTAGGC,0.648

# Molecular target: T2, ETS1 (UniProt P14921)
# T2 sequence: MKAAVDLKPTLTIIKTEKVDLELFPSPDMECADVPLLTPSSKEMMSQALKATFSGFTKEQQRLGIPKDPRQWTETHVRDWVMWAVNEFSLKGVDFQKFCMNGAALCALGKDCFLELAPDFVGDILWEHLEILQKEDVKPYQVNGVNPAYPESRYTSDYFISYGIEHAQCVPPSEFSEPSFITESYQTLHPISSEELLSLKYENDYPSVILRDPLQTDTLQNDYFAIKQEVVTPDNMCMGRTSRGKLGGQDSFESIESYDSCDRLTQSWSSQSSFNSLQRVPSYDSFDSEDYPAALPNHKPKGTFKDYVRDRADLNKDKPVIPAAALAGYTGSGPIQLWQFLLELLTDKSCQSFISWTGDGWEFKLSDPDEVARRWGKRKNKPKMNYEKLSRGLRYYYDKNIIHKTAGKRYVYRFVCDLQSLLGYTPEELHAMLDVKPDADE
# Test: as above
# Conditions: 10 mM Tris-HCl pH 7.5, 50 mM NaCl, 1 mM DTT, 4% glycerol, room temperature, 30 min; GST-TFs on glutathione beads, 16-mer random dsDNA library, 0.1% …; high values mean tight binding; double strand, one strand shown; scale: fold enrichment (6-mer frequency, TF over GST control)
row,Sequence,binding signal
1,CCAGGC,0.456
2,GGAGCG,0.386
3,ACGAGG,0.76
4,ATTGGA,0.882
5,TAGGTG,0.91
6,CACCGT,0.629
7,GCGTCG,0.794
8,GGTTGA,0.815
9,ACAGTG,0.51
10,GGCCGC,0.782
11,GGGCGG,0.4
12,GTCGCG,0.652
13,AGGGCA,0.86
14,ACACGT,0.766
15,CAGGTA,0.81
16,CGTGTG,0.39
17,CATGTG,0.844
18,AACCGT,0.506
19,GAGTTA,0.55
20,GGGGTG,0.729

row,Sequence,binding signal
1,GAGCTA,0.875
2,GGACAG,0.548
3,GAGTGC,0.569
4,GCGGAG,0.277
5,CCTGAG,0.774
6,GTGGGC,0.686
7,CACAGA,0.857
8,CAGTCA,0.486
9,GTCATC,0.867
10,GGCCAT,0.791
11,GACACA,0.996
12,TACGTG,0.714
13,GTCATA,0.756
14,TGTGGG,0.816
15,ACAGGT,0.776
16,AGACCA,0.625
17,GAGGTC,0.571
18,AGTCAT,0.583
19,GTAGGC,0.688

# Molecular target: T3, SPDEF (UniProt O95238)
# T3 sequence: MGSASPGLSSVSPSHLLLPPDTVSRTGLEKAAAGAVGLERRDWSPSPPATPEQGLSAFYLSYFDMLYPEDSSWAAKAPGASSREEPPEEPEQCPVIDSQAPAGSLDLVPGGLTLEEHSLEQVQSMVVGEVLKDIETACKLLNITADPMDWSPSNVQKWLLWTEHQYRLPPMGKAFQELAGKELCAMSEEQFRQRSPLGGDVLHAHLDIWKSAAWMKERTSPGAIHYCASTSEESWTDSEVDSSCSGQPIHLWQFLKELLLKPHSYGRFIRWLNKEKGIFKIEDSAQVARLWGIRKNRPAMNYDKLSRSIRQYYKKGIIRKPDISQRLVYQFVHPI
# Test: as above
# Conditions: 10 mM Tris-HCl pH 7.5, 50 mM NaCl, 1 mM DTT, 4% glycerol, room temperature, 30 min; GST-TFs on glutathione beads, 16-mer random dsDNA library, 0.1% …; high values mean tight binding; double strand, one strand shown; scale: fold enrichment (6-mer frequency, TF over GST control)
row,Sequence,binding signal
1,CCAGGC,0.368
2,GGAGCG,0.322
3,ACGAGG,0.754
4,ATTGGA,0.86
5,TAGGTG,0.797
6,CACCGT,0.739
7,GCGTCG,0.721
8,GGTTGA,0.807
9,ACAGTG,0.505
10,GGCCGC,0.784
11,GGGCGG,0.449
12,GTCGCG,0.643
13,AGGGCA,0.83
14,ACACGT,0.791
15,CAGGTA,0.882
16,CGTGTG,0.449
17,CATGTG,0.797
18,AACCGT,0.528
19,GAGTTA,0.6
20,GGGGTG,0.671

row,Sequence,binding signal
1,GAGCTA,0.869
2,GGACAG,0.613
3,GAGTGC,0.597
4,GCGGAG,0.266
5,CCTGAG,0.818
6,GTGGGC,0.71
7,CACAGA,0.898
8,CAGTCA,0.429
9,GTCATC,0.898
10,GGCCAT,0.796
11,GACACA,0.874
12,TACGTG,0.712
13,GTCATA,0.79
14,TGTGGG,0.737
15,ACAGGT,0.827
16,AGACCA,0.667
17,GAGGTC,0.636
18,AGTCAT,0.568
19,GTAGGC,0.682
